Experimental data from patent US20120238562A1, “TREATMENT OF CANCER BY TARGETING MOLECULES THAT INFLUENCE MST1/STK4 SIGNALING” (CEDARS-SINAI MEDICAL CENTER, priority 2011, published 2012).
For at least one compound, name, drawing or mass did not settle the structure.

How the values were obtained:
Assay type in all cases: cell-based, human
Akt = experiment: Western blot of Akt activity in LNCaP cells; conditions: LY294002 20 μM, serum-starved, 3 h post treatment
[1] = tested on: Mst1-T120 phosphorylation; experiment: Western blot of Mst1-T120 phosphorylation in cytoplasmic and nuclear fractions of LNCaP cells; conditions: serum-starved, 3 h post treatment, vs DMSO control, LY294002 20 μM, Ku0063794 1 μM
Experimental: A) Schematic representation of the GST-Mst1 peptide with wild type (wt) T120 or T120A mutations. B) In vitro kinase assay with bacterially expressed and purified GST-only, GST-Mst1-T120 wt, or GST-Mst1-T120A mutant peptide and the recombinant pre-activated Akt kinase. Western blots were probed with pMst1-T120 antibody. Ponceau S stained purified GST, GST-Mst1-T120, or GST-Mst1-T120A mutant peptide. C) LNCaP cells were treated with DMSO (vehicle) control, a specific PI3K inhibitor, LY294002 (20 μM), or mTOR inhibitor, Ku0063794 (1 μM) in serum-starved conditions. […]
A nuclear extraction kit according to the manufacturer's protocol (Affymetrix, Santa Clara, Calif.) was used to isolate cytoplasmic and nuclear fractions. […] Protein concentrations were determined by the Lowry method (Bio-Rad, Hercules, Calif.). […] Signals were detected using SuperSignal West Pico Chemiluminescence Substrate (Thermo Scientific, Roxford, Ill.).
The inventors generated GST-Mst1 peptide with T120-wt or T120A mutations (FIG. 2A). […] The inventors then assessed the effects of PI3K-Akt inhibition on Mst1-T120 phosphorylation in its respective location in the cell. […] The levels of phospho-Mst1-T120 were assessed by western blot in cytoplasmic and nuclear fractions. […]

[2] = tested on: Mst1-T183 phosphorylation; experiment: Mst1-T183 phosphorylation in treated prostate cancer cells; conditions: prostate cancer cells treated with inhibitor
Experimental: However, the levels of […] phosphorylation were unchanged when cells were treated with a potent mTOR inhibitor, Ku0063794, (FIG. 3). […] Based on these observations, the inventors therefore conclude that Mst1-phosphorylation at T120 or at […] are unrelated events or is modulated by different mechanisms, at least in prostate cancer cells.

C4-2 cells = experiment: Cell proliferation by MTS assay, C4-2 cells; conditions: 48 h post treatment, vs DMSO, Ku0063794 1 μM, rapamycin 1 μM (p<0.1), BEZ-235 0.5 μM (p<0.002)
Experimental: A, B) LNCaP (A) or C4-2 (B) cells were treated with control (DMSO), LY294002 (20 μM), Ku0063794 (1 μM), rapamycin (1 μM), LY294002+Ku0063794, or LY294002+Rapamycin. C) C4-2 cells were treated with DMSO or the dual PI3K and mTOR inhibitor, BEZ-235 (0.5 μM). Control or drug treatments were performed in T-medium supplemented with 5% FBS and 1% Pen/Strep. Cell proliferation was determined by MTS assay (A490 nm) at 48 h post treatment. D) Levels of endogenous total Mst1 by western blot in cytoplasmic (C) and nuclear (N) fractions from C4-2 cells that were transfected with scramble or Mst1 specific SiRNa. B-actin was used as a loading control. E) Effects of DMSO or CCI-779 on C4-2 cell proliferation with scramble or MSt1 knockdown conditions. Cell proliferation was determined by MTS (A490 nm) at 72 h post transfection. Data are representative of multiple experiments.
Cell proliferation was measured using CellTiter 96 AQueous with MTS reagent (Promega, Madison, Wis.). Briefly, cells in RPMI-medium plus 10% fetal bovine serum were added to 96-well plates at 4,000 cells per well in quadruplicate. […] MTS and phenazine methosulfate solution (20 μL/well) was added and the absorbance at 490 nm was recorded using a microplate reader (BMG Labtech; Cary, N.C.). […] Representative views from triplicate experiments were photographed and quantified. […] After 14 days, colonies were photographed and quantified. […]

SMILES	Akt activity (Akt)	Mst1-T120 phosphorylation in cell nuclei [1]	Mst1-T183 phosphorylation [2]	C4-2 cell growth / proliferation vs control (MTS, A490 nm) (C4-2 cells)
O=c1cc(N2CCOCC2)oc2c(-c3ccccc3)cccc12 [LY294002]	completely abolished	did not significantly affect	enhanced	
CO[C@H]1C[C@@H]2CC[C@@H](C)[C@@](O)(O2)C(=O)C(=O)N2CCCC[C@H]2C(=O)O[C@H]([C@H](C)C[C@@H]2CC[C@@H](O)[C@H](OC)C2)CC(=O)[C@H](C)/C=C(\C)[C@@H](O)[C@@H](OC)C(=O)[C@H](C)C[C@H](C)/C=C/C=C/C=C/1C [rapamycin]				failed to significantly inhibit
